Data reported in patent US20260242768A1, “ACETYL-COENZYME A CARBOXYLASE MUTANTS” (CIBUS US LLC, priority 2023, published 2026).
Some results were stated once for a whole list of compounds, not compound by compound.

Tested on: O. sativa ACCase
Test: Growth of Saccharomyces cerevisiae pseudodiploid acc1Δ strains carrying wild-type or mutant OsACCase plasmids, streaked onto plates with increasing concentrations of clethodim (Examples 5, 7, 10; Tables 8, 12)
Format: cell-based, Oryza sativa
Settings: 0.01% galactose; for clethodim concentrations on which the strain grew: Example 7, plates with increasing clethodim; for clethodim concentrations on which the strain grew poorly / clethodim concentrations on which the strain grew well: Example 10, highest concentration tested 1 mM
Excerpt: Mutations at position N2097S and V2098A were combined to determine if point mutations at both positions gave increased resistance compared to either single point mutation. Each of these respective mutations (N2097S, V2098A and N2097S/V2098A) were generated by standard methods and introduced into a Saccharomyces cerevisiae pseudodiploid acc1Δ strain with a plasmid containing wild-type O. sativa ACCase gene. Once each of these mutations were introduced by recombination mediated mutagenesis, the OsACCase wild-type plasmid was removed, and mutation strains were confirmed by sequencing. The three strains, along with a series of controls including a WT strain (negative control), an I1781L mutant strain, and a D2078G mutant strain (positive control), were streaked onto plates with increasing concentrations of clethodim. […] These observations argue that N2097S is an enhancer of V2098A tolerance.
Edits at position S1784N and A1785G were combined to determine if point mutations at both of these two positions gave increased resistance compared to either single point mutation. Each of these respective mutations (S1784N, A1785G and S1784N/A1785G) were generated by standard methods and introduced into a Saccharomyces cerevisiae pseudodiploid acc1Δ strain with a plasmid containing wild-type O. sativa ACCase gene. Once each of these mutations were introduced by recombination mediated mutagenesis, the OsACCase wild-type plasmid was removed, and mutation strains were confirmed by sequencing. The three strains, along with a series of controls including a WT strain (negative control), an I1781L mutant strain, a D2078G mutant strain (positive control), and a V2075L mutant strain were streaked onto plates with increasing concentrations of clethodim.
Each of these respective mutations (D2078G, P2083T, D2078G/P2083T) were generated by standard methods and introduced into a Saccharomyces cerevisiae pseudodiploid acc14 strain with a plasmid containing the wild-type O. sativa ACCase gene. Once plasmids bearing each of these mutations, introduced using recombination-mediated mutagenesis, the OsACCase wild-type plasmid was removed, and strains bearing each mutant plasmid were confirmed by sequencing. The three strains, along with a series of controls including a wild-type strain (negative control), an I1781L mutant strain (medium control), and a pre-existing D2078G mutant strain (positive control) were streaked onto plates with increasing concentrations of clethodim.

Substance	clethodim concentrations on which the strain grew	clethodim concentrations on which the strain grew poorly	clethodim concentrations on which the strain grew well
S1784N: mutated ACCase, numbering per SEQ ID NO: 2	up to 0.25 mM		
D2078G/P2083T: double mutant ACCase; yeast strain and edited rice line		up to 1 mM	up to 0.5 mM
D2078G: mutated ACCase, numbering per SEQ ID NO: 2; positive control strain; also edited rice shoots		up to 1 mM	up to 0.5 mM
I1781L: mutated ACCase, numbering per SEQ ID NO: 2; moderate-resistance control	up to 0.25 mM		
